Values from PubChem BioAssay AID1224830 (NIAID, 2016)
Here is one part, drawn at random, of about 18,000 reagents tested. In the full data, about 2,900 (16%) got an active call. 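Calls are made per well; low scores hint the gene aids the LPS response, high scores that it dampens it.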 Repeated entries: four replicate wells of each siRNA pool. Reagent sequences are not shown.

Purpose: 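Host factors that control LPS-induced TNF expression in human macrophages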 (primary screen)
Cell system: human THP-1 monocytic leukaemia cells, TNF dual-luciferase reporter clone, PMA-differentiated to macrophage-like cells
Reagents: siRNA pool against human genes, 50 nM
Duration: LPS for 4 h, given about 3 days after siRNA transfection
Conditions: bacterial LPS (TLR4 ligand), 10 ng/ml
Measured: 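TNF firefly reporter luminescence divided by renilla, normalised to the plate median, then turned into a robust z-score for each replicate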
Reading the numbers: TNF reporter robust z-score: higher = stronger TNF reporter response to LPS
Call rule: 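Each well counts as active if its z-score is over 2.8 or under -1.5; controls are left without a call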

| gene | TNF reporter robust z-score | Call |
| --- | --- | --- |
| POLR3GL | -1.55 | active |
| POLR3GL | -0.71 | inactive |
| POLR3GL | 0.15 | inactive |
| POLR3GL | -0.08 | inactive |
| IFI27L2 | -0.54 | inactive |
| IFI27L2 | -0.51 | inactive |
| IFI27L2 | -1.09 | inactive |
| IFI27L2 | -0.77 | inactive |
| ATP6AP1L | 0.48 | inactive |
| ATP6AP1L | 1.1 | inactive |
| ATP6AP1L | 0.35 | inactive |
| ATP6AP1L | 0.17 | inactive |
| OR4F17 | 0.4 | inactive |
| OR4F17 | -0.85 | inactive |
| OR4F17 | -0.29 | inactive |
| OR4F17 | 2.59 | inactive |
| ZNF473 | -1.15 | inactive |
| ZNF473 | -0.8 | inactive |
| ZNF473 | -0.67 | inactive |
| ZNF473 | -0.87 | inactive |
| NAA38 | 0.2 | inactive |
| NAA38 | 0.33 | inactive |
| NAA38 | 0.79 | inactive |
| NAA38 | 0.25 | inactive |
| DHRS4 | 1.69 | inactive |
| DHRS4 | 1.29 | inactive |
| DHRS4 | -0.39 | inactive |
| DHRS4 | -0.07 | inactive |
| CAMP | -1.13 | inactive |
| CAMP | -0.4 | inactive |
| CAMP | -0.2 | inactive |
| CAMP | -0.23 | inactive |
| CGB5 | 1.29 | inactive |
| CGB5 | 0.89 | inactive |
| CGB5 | 0.44 | inactive |
| CGB5 | 0.29 | inactive |
| SFXN4 | 1.13 | inactive |
| SFXN4 | 0.89 | inactive |
| SFXN4 | 1.67 | inactive |
| SFXN4 | 2.12 | inactive |
| FOXR1 | -0.76 | inactive |
| FOXR1 | -0.09 | inactive |
| FOXR1 | -0.23 | inactive |
| FOXR1 | 0.09 | inactive |
| EME1 | 1.84 | inactive |
| EME1 | 1.47 | inactive |
| EME1 | 0.51 | inactive |
| EME1 | 0.41 | inactive |
| MBD4 | -0.62 | inactive |
| MBD4 | 0.52 | inactive |
| MBD4 | 0.08 | inactive |
| MBD4 | 0.4 | inactive |
| SOX9 | 1.77 | inactive |
| SOX9 | 1.95 | inactive |
| SOX9 | 1.39 | inactive |
| SOX9 | 2 | inactive |
| KRTAP1-3 | -0.67 | inactive |
| KRTAP1-3 | 0.42 | inactive |
| KRTAP1-3 | -0.32 | inactive |
| KRTAP1-3 | -0.05 | inactive |
| UBE2G2 | -0.73 | inactive |
| UBE2G2 | -0.98 | inactive |
| UBE2G2 | -0.53 | inactive |
| UBE2G2 | 1.12 | inactive |
| FBXL21P | -0.83 | inactive |
| FBXL21P | -0.07 | inactive |
| FBXL21P | -0.73 | inactive |
| SLC39A10 | 0.01 | inactive |
| SLC39A10 | -0.47 | inactive |
| SLC39A10 | -0.91 | inactive |
| SLC39A10 | -1.5 | inactive |
| TCEAL6 | -0.74 | inactive |
| TCEAL6 | -0.84 | inactive |
| TCEAL6 | 0.08 | inactive |
| TCEAL6 | -0.81 | inactive |
| CHRM5 | 0.48 | inactive |
| CHRM5 | 0.56 | inactive |
| CHRM5 | 0.25 | inactive |
| CHRM5 | 0.95 | inactive |
| VPS35L | 0.04 | inactive |
| VPS35L | 0.38 | inactive |
| VPS35L | -0.42 | inactive |
| VPS35L | -0.44 | inactive |
| CNDP2 | -0.07 | inactive |
| CNDP2 | 2.21 | inactive |
| CNDP2 | 1.07 | inactive |
| CNDP2 | 0.44 | inactive |
| GOLGA8EP | 0.24 | inactive |
| GOLGA8EP | 0.14 | inactive |
| GOLGA8EP | -0.28 | inactive |
| GOLGA8EP | -0.31 | inactive |
| MEN1 | -0.29 | inactive |
| MEN1 | -0.41 | inactive |
| MEN1 | -0.94 | inactive |
| MEN1 | -0.31 | inactive |
| CLEC3B | -1.36 | inactive |
| CLEC3B | -0.17 | inactive |
| CLEC3B | -0.19 | inactive |
| CLEC3B | -1.49 | inactive |
| ZNF563 | 0.51 | inactive |
| ZNF563 | -0.07 | inactive |
| ZNF563 | -0.03 | inactive |
| ZNF563 | -0.06 | inactive |
| CD96 | 3.11 | active |
| CD96 | 1.39 | inactive |
| CD96 | 0.84 | inactive |
| CD96 | 0.4 | inactive |
| ARHGEF39 | -0.56 | inactive |
| ARHGEF39 | -0.23 | inactive |
| ARHGEF39 | -0.83 | inactive |
| ARHGEF39 | 0.38 | inactive |
| RBBP6 | -0.75 | inactive |
| RBBP6 | -1.25 | inactive |
| RBBP6 | -2.25 | active |
| RBBP6 | -0.26 | inactive |
| RCOR1 | 0.9 | inactive |
| RCOR1 | 0.19 | inactive |
| RCOR1 | 1.04 | inactive |
| RCOR1 | 1.73 | inactive |
| MRPS10 | 3.6 | active |
| MRPS10 | 5.06 | active |
| MRPS10 | 0.93 | inactive |
| MRPS10 | 7.58 | active |
| PRDM1 | -0.81 | inactive |
| PRDM1 | 0.03 | inactive |
| PRDM1 | -0.07 | inactive |
| PRDM1 | -0.26 | inactive |
| AMBP | 2.49 | inactive |
| AMBP | 3.1 | active |
| AMBP | 1.4 | inactive |
| AMBP | 3.48 | active |
| TMEM130 | 0 | inactive |
| TMEM130 | 0.12 | inactive |
| TMEM130 | -0.8 | inactive |
| TMEM130 | 1.11 | inactive |
| USP30 | -0.76 | inactive |
| USP30 | -1.46 | inactive |
| USP30 | -0.94 | inactive |
| USP30 | -0.04 | inactive |
| RFFL | 1.35 | inactive |
| RFFL | 1.06 | inactive |
| RFFL | -1.47 | inactive |
| RFFL | -0.88 | inactive |
